From PubChem BioAssay AID256 (DTP/NCI, 2004)
The list shows only some results of the screen, not a fair sample: it gathers tests that were run many times, whatever their T/C, doses with no T/C, and many T/C values between a quarter and a half above the control. Further doses and runs are listed elsewhere. T/C gives the treated animals as a percentage of the vehicle group. Some entries give survivors of the animals treated and no T/C: the source files T/C as zero there, which appears to mark a toxic dose or a test without result, not a measured value. Some survivor counts are full or nearly so, which does not show that the dose was tolerated: survival well below the control is almost never listed, so the zero probably covers shortened survival too. Counts of survivors are from the toxicity check (mostly the fifth day) where no day follows; animals may have died later. Schedule codes are those of the source, taken here to give the interval after Q, in days (D) or hours (H), and the number of doses after X. Some doses were run more than once; the values are given in rising order. For survival time, this PubChem deposit counts one and a half times the control or more as active, and values a quarter to a half above the control carry no call in these data; other NCI protocols may use other cut-offs. Some T/C values are followed by the survivors on the day toxicity was checked, most often the fifth; where none is given, no animal had died by that day.

Tested on: CD2F1 mice, L1210 leukemia ip, survival T/C
Assay: NCI In Vivo Anticancer Drug Screen. Data for tumor model L1210 Leukemia (intraperitoneal) in CD2F1 (CDF1) mice
Details: T/C endpoint: mean survival time, higher T/C = longer survival
How it was run: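 Compound-dosed mice with transplantable tumor versus matched vehicle controls; endpoint ratio T/C reported.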

[1] = dose: 200.0 mg/kg/injection, schedule: Q01DX009 (ip), vehicle: saline with Tween-80
[2] = dose: 400.0 mg/kg/injection, schedule: Q04DX003 (ip), vehicle: saline with Tween-80
[3] = dose: 200.0 mg/kg/injection, schedule: Q04DX003 (ip), vehicle: saline with Tween-80
[4] = dose: 100.0 mg/kg/injection, schedule: Q01DX009 (ip), vehicle: saline with Tween-80
[5] = dose: 100.0 mg/kg/injection, schedule: Q04DX003 (ip), vehicle: saline

SMILES: O=C(O)CCC(=O)O
- survivor count (dose: 320.0 mg/kg/injection, schedule: Q01DX001 (ip), vehicle: water): 2 of 6
- survivor count (dose: 640.0 mg/kg/injection, schedule: Q01DX001 (ip), vehicle: water): 0 of 6

SMILES: N#CC(NCc1ccccc1)c1ccc2c(c1)OCO2 (stereo not given)
- survivor count [1]: 2 of 6
- survivor count [2]: 2 of 6

SMILES: O=C(O)C[N-]CC[N-]CC(=O)O.[Cl][Pt+2][Cl]
- survivor count (dose: 100.0 mg/kg/injection, schedule: Q04DX003 (ip), vehicle: other): 8 of 10

SMILES: COc1ccc(C(=O)c2cccc3c2-c2ccccc2C3(c2ccc(OC)c(C)c2)c2ccc(OC)c(C)c2)cc1C
- survivor count (dose: 20.0 mg/kg/injection, schedule: Q01DX001 (ip), vehicle: other): 6 of 6

SMILES: COc1cc2c3c(cccc3c1)C(=O)N(CCN(C)C)C2=O
- survivor count (dose: 160.0 mg/kg/injection, schedule: Q01DX009 (ip), vehicle: saline with Tween-80): 4 of 6

SMILES: Cc1cc(=O)c(Cl)cc(=O)[nH]1
- survivor count (dose: 50.0 mg/kg/injection, schedule: Q01DX001 (ip), vehicle: saline with Tween-80): 1 of 3

SMILES: COC1CCC2=C(C1)C(=O)CC1c3ccccc3CCN21 (stereo not given) (tested in a mixture with another compound)
- survivor count (dose: 100.0 mg/kg/injection, schedule: Q04DX003 (ip), vehicle: saline with Tween-80): 2 of 6
- survivor count [3]: 2 of 6
- survivor count [2]: 0 of 6

SMILES: Clc1cc(Cl)c2nc[nH]c2c1
- survivor count [1]: 0 of 3

SMILES: O=C1CCc2ccccc2C1C(=O)CC(O)(c1ccccc1)c1ccccc1 (stereo not given)
- survivor count (dose: 50.0 mg/kg/injection, schedule: Q01DX009 (ip), vehicle: saline with Tween-80): 6 of 6
- survivor count [4]: 6 of 6
- survivor count [1]: 3 of 6
- survivor count [2]: 1 of 6

SMILES: Cc1c2cc[n+](CCN3CCCCC3)cc2c(C)c2c1[nH]c1ccc(O)cc12
- T/C (dose: 1.56 mg/kg/injection, schedule: Q01DX009 (ip), vehicle: saline): 136 % of control [5 of 6 alive]
- T/C (dose: 3.12 mg/kg/injection, schedule: Q01DX009 (ip), vehicle: saline): 143 % of control
- T/C (dose: 3.12 mg/kg/injection, schedule: Q01DX009 (ip), vehicle: suspension in saline): 132 % of control
- T/C (dose: 6.25 mg/kg/injection, schedule: Q01DX009 (ip), vehicle: saline): 141 % of control
- T/C (dose: 6.25 mg/kg/injection, schedule: Q01DX009 (ip), vehicle: suspension in saline): 137 % of control
- T/C (dose: 25.0 mg/kg/injection, schedule: Q01DX009 (ip), vehicle: saline): 129 % of control
- T/C (dose: 25.0 mg/kg/injection, schedule: Q01DX009 (ip), vehicle: suspension in saline): 126 % of control

SMILES: O=[N+]([O-])c1ccccn1
- survivor count [5]: 1 of 6
- survivor count (dose: 200.0 mg/kg/injection, schedule: Q04DX003 (ip), vehicle: saline): 0 of 6
- survivor count (dose: 400.0 mg/kg/injection, schedule: Q04DX003 (ip), vehicle: saline): 0 of 6

SMILES: CCCC(CC)(C[NH-])C[NH-].[Cl][Pt+2][Cl]
- T/C (dose: 25.0 mg/kg/injection, schedule: Q04DX003 (ip), vehicle: saline): 143 % of control
- T/C [5]: 135 % of control

SMILES: COc1cc(C=O)ccc1OC(=O)Nc1cc([N+](=O)[O-])ccc1Cl
- T/C [4]: 105, 106, 109, 113 % of control
- T/C [1]: 103, 109, 112 % of control
- survivor count [1]: 2 of 3
- survivor count (dose: 400.0 mg/kg/injection, schedule: Q01DX009 (ip), vehicle: saline with Tween-80): 0 of 3 and 1 of 6

SMILES: C#CCOC1CCCC1O (stereo not given)
- survivor count (dose: 200.0 mg/kg/injection, schedule: Q04DX003 (ip), vehicle: acetone): 4 of 6
- survivor count (dose: 400.0 mg/kg/injection, schedule: Q04DX003 (ip), vehicle: acetone): 0 of 6

SMILES: NC(=O)N/N=C\c1ccco1
- survivor count [3]: 3 of 6
- survivor count [2]: 0 of 6

SMILES: Nc1nc(-c2cccc([N+](=O)[O-])c2)c(N=Nc2ccccc2Cl)s1
- survivor count (dose: 200.0 mg/kg/injection, schedule: Q01DX001 (ip), vehicle: saline with Tween-80): 6 of 6

SMILES: CCCCCCC/C=N/NC(=O)c1ccc[n+](C)c1
- survivor count (dose: 400.0 mg/kg/injection, schedule: Q01DX001 (ip), vehicle: saline with Tween-80): 0 of 6

SMILES: CC(=O)N(C)NC(=O)c1ccccn1
- survivor count (dose: 100.0 mg/kg/injection, schedule: Q01DX009 (ip), vehicle: water): 6 of 6
- survivor count (dose: 400.0 mg/kg/injection, schedule: Q01DX009 (ip), vehicle: water): 0 of 6
